# Several values for one entry are separate records, joined by “and”; a condition that tells them apart may be missing. Equal entries are not always repeated. The name of at least one read-out is uncertain.
# Test system: SW1573/WT wild type non-small lung human cell line
# Assay: Cell growth assay (SRB) in SW1573/WT
# Assay type: cell-based
# Conditions: SW 1573/WT; acetylated 4-N-acyl derivatives (Table 7)
# Protocol: Biological activities of the Gemcitabine derivative (which may be referred to as analogues) described above were evaluated with two assays: • 1. Cell growth assay using the SRB assay in cell lines A549/WT, SW1573/WT, PANC-01 and BXPC-3. • 2. MTT assay in human bladder cancer cell line T-24
# The following cell lines were tested: • A549/WT —wild type human lung adenocarcinoma cell line (1) • SW1573/WT —wild type non-small lung human cell line (2), • PANC-01—human pancreatic cancer cell line (3) • BXPC-3 -epithelial human pancreatic adenocarcinoma cells (4).
# Dipyridamole inhibits adenosine uptake by erythrocytes platelets and endothelial cells in vitro and in vivo. Thus, the present inventors recruited dipyridamole as an inhibitor of the nucleoside transporters of the tumour cells to observe the behaviour of the presently described Gemcitabine derivatives.
# From the IC50 of each compound in the presence of dipyridamole, by dividing it with the IC50 of each compound in the absence of dipyridamole, the present inventors calculated a ratio that compared the efficacy of the analogous presence of dipyridamole.
# Ratio=IC50 in the presence of dipyridamole/IC50 in the absence of dipyridamole • FIG. 10. Ratio of IC50 of 4-N-acyl and 4-N-phosphoryl derivatives in the presence of, compared to in the absence of, dipyridamole, in four cell lines
smiles,measurement,value
CC(=O)OCC1OC(n2ccc(NC(=O)OCCl)nc2=O)C(F)(F)C1OC(C)=O (stereo not shown) [Derivative 17],"Ratio of IC50 in the presence of, compared to in the absence of, dipyridamole",3.6 and 3.9

# Source: US20220296627A1, “Cytidine Derivatives and Methods of Forming Cytidine Derivatives” (Aenorasis Commercial Company of Pharmaceutical and Medical …, priority 2019, published 2022)
